PMC7155212 (Journal of Enzyme Inhibition and Medicinal Chemistry, 2020)
The source holds more than one record for some entries. They are shown here; other results are not. An entry can have further records. The values listed for one entry differ for a reason that is not stated; some may be repeats, others may stem from another dose, organism or construct than stated.

Chains of the proteins cited; added tags and fusions are not shown. Residues count along the entry.
UniProt P81908, whole entry: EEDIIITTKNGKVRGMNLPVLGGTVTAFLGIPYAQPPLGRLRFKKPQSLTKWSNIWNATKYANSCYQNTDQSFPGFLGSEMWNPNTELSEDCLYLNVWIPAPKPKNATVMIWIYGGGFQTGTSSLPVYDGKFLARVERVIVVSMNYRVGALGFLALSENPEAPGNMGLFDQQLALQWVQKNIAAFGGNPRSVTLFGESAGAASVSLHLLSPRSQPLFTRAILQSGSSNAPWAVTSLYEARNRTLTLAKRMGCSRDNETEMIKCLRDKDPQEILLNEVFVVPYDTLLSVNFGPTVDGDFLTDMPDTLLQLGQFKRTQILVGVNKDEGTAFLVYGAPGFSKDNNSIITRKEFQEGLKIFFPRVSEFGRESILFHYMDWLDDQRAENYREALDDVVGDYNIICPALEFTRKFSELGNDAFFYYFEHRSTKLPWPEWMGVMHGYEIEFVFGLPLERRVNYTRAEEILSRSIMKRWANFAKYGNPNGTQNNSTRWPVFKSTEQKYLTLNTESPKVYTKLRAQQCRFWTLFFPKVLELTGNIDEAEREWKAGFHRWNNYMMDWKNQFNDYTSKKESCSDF
UniProt O42275, 24-633 limits assumed: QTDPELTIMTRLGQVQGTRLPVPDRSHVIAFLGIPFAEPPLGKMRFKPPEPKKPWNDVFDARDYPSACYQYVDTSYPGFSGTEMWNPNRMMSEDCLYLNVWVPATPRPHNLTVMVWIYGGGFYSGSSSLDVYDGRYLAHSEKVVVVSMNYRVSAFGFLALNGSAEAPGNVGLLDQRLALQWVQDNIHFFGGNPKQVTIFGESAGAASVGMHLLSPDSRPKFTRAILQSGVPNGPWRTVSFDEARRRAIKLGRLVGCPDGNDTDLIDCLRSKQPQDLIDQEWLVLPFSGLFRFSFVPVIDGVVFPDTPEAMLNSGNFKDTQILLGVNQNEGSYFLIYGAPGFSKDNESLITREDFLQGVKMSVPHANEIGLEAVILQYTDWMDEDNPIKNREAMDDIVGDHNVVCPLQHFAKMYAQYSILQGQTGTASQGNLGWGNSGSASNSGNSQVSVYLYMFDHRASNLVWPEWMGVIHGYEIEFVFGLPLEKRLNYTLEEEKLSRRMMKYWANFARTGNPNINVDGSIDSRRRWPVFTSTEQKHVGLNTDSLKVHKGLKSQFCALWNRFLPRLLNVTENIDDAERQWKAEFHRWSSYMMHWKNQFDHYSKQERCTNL

Experiments:
BChE from equine serum = BChE from equine serum (Equus caballus, UniProt P81908); conditions: read-out: IC50 value BuChE inhibitory activity, Ellman method, mean ± SD (n = 3)
AChE from electric eel = AChE from electric eel (Electrophorus electricus, UniProt O42275); conditions: read-out: IC50 value AChE inhibitory activity, Ellman method, mean ± SD (n = 3)

SMILES | IC50 (BChE from equine serum) | IC50 (AChE from electric eel)
COc1ccc(C2C(=O)Oc3ccc(O)cc32)cc1 (centres unmarked) [Compound 2, 5-Hydroxyl-3–(4′-methoxyphenyl)-benzofuranone] | < 50 µM and 24.9 µM | 
COc1ccc(C2C(=O)Oc3c2ccc(O)c3O)cc1 (centres unmarked) [Compound 5, 6,7-Dihydroxy-3–(4′-methoxyphenyl)-benzofuranone] |  | < 1 µM and 480 nM
